# Measured values published in doi:10.1101/158022.
# Sequences of proteins named here, by UniProt entry; tags and fusion partners are left off. Residues count along the entry.
# UniProt P06276, residues 29-602: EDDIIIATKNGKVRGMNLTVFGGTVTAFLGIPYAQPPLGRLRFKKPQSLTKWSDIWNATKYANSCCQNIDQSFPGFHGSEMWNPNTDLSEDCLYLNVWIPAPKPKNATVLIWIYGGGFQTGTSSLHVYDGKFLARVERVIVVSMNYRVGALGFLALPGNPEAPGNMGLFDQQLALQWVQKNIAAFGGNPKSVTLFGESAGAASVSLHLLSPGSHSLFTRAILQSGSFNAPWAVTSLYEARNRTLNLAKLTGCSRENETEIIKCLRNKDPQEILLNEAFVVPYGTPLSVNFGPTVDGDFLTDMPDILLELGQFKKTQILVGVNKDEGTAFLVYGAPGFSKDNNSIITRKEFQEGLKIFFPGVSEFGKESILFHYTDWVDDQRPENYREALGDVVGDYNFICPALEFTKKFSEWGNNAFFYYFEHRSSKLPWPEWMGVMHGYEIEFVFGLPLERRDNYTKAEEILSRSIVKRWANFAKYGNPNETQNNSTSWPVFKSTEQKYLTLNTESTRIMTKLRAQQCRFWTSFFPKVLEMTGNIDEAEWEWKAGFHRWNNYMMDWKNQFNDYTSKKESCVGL
# UniProt P18065, residues 36-325: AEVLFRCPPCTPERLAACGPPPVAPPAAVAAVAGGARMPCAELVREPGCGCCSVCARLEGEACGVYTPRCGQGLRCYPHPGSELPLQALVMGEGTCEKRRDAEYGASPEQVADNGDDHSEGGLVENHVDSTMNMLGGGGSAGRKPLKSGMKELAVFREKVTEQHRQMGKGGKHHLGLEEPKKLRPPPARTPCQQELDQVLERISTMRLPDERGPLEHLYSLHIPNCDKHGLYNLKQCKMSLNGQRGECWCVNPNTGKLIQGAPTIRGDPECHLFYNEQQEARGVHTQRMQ
# These are yes or no findings as the source states them, for the method shown. Some results given as binding are weak or reduced against the parent protein; the word gives no strength.
# Target: butyrylcholine esterase (human (endogenous in plasma)) (UniProt P06276)
# Assay: multiplexed sandwich immunoassay
substance,measurement,value
insulin growth factor binding protein 2 (from UniProt P18065 36-325),binding,binds
